Measurements from article PMC8760305.
These are yes or no findings as the source states them, for the method shown. In cells and extracts the contact can be indirect. Some results given as binding are weak or reduced against the parent protein; the word gives no strength. One block for each molecule: values may come before it.

By UniProt entry, the sequences of proteins in these tests, tags left out.
UniProt Q99558: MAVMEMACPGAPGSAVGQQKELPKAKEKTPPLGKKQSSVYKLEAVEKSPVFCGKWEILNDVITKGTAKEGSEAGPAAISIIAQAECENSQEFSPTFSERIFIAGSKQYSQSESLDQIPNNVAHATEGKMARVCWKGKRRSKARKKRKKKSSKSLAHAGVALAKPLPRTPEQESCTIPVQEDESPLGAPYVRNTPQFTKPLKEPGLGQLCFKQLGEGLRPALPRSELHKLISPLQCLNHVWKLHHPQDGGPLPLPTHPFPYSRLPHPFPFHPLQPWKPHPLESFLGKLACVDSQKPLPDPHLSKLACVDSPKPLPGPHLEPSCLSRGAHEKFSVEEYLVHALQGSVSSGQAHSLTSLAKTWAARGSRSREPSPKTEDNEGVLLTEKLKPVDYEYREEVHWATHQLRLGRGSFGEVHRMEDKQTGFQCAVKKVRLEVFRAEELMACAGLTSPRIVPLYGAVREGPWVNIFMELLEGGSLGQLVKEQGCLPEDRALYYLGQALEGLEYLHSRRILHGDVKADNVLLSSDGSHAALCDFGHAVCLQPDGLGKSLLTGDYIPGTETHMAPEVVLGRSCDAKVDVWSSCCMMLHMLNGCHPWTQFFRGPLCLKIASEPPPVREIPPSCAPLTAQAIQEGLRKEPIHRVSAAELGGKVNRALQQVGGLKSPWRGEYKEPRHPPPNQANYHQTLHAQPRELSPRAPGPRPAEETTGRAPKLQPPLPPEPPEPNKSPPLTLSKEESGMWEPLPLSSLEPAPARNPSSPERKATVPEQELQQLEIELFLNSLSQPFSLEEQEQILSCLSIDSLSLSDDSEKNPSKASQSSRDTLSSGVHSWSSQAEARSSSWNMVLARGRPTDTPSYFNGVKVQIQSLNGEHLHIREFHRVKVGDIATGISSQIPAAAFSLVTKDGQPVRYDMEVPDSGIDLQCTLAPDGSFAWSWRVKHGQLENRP

Tests used:
[1] = target: T1, NIMA-related kinase 2 (NEK2), endogenous (human (endogenous; cells of the co-IP not named, all cells of the paper are human)) (UniProt P51955); assay: co-IP; NEK2 antibody or NIK antibody (1:50) added to cell lysates overnight at 4 °C, protein A Dynabeads 2 h, washed three times with PBST, western blot; nonspecific IgG as control
T1 sequence: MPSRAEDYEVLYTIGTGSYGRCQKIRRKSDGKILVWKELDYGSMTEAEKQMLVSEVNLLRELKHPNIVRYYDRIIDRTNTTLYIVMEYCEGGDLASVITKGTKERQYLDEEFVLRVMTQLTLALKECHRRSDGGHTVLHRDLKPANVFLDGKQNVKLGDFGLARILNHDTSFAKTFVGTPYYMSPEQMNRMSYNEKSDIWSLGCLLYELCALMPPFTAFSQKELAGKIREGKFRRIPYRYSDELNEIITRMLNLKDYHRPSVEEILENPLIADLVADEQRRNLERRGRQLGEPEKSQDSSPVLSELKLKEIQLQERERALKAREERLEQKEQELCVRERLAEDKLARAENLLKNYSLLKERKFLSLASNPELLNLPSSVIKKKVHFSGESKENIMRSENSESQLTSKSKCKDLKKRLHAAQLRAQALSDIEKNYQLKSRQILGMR

[2] = target: GST-tagged NIK (NF-κB-inducing kinase) (UniProt Q99558); assay: pull-down; GST-tagged NIK expressed in HEK293T cells with or without NEK2 overexpression; cell lysates incubated with GST beads for 1 h, washed with lysate buffer, western blot
[3] = target: NF-κB-inducing kinase (NIK), endogenous (human (endogenous; cells of the co-IP not named, all cells of the paper are human)) (UniProt Q99558); assay: co-IP; NEK2 antibody or NIK antibody (1:50) added to cell lysates overnight at 4 °C, protein A Dynabeads 2 h, washed three times with PBST, western blot; nonspecific IgG as control

binding [1]: binds
Molecule: NF-κB-inducing kinase (NIK), endogenous (from UniProt Q99558 1-947)

binding [2]: binds
B1: NIMA-related kinase 2 (NEK2), exogenous, overexpressed in HEK293T (protein, UniProt P51955 1-445)
chain: T1 sequence

binding [3]: binds
B2: NIMA-related kinase 2 (NEK2), endogenous (protein, UniProt P51955 1-445)
chain: T1 sequence
